{
  "sequences": {"note": "The chains behind the UniProt entries cited, without tags or fusion partners.", "UniProt P09405": "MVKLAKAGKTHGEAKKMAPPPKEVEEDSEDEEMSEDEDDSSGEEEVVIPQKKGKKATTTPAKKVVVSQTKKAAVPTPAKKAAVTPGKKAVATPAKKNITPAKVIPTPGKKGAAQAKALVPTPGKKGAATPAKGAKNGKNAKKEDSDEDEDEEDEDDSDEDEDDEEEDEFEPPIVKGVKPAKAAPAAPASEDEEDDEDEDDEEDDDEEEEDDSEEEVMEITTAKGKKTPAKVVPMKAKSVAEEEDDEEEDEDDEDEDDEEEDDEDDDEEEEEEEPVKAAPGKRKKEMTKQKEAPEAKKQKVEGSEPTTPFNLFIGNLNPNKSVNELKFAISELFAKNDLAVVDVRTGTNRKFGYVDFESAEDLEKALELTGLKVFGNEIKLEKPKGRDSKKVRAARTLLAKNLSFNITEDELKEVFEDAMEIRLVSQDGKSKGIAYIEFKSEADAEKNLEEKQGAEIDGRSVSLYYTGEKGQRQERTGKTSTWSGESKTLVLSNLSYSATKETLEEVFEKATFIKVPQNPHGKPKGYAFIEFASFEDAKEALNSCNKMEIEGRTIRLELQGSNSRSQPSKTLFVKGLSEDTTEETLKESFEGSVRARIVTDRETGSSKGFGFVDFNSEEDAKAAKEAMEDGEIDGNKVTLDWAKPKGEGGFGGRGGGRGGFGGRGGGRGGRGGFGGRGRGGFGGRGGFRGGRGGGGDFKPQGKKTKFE", "UniProt Q9UKV8": "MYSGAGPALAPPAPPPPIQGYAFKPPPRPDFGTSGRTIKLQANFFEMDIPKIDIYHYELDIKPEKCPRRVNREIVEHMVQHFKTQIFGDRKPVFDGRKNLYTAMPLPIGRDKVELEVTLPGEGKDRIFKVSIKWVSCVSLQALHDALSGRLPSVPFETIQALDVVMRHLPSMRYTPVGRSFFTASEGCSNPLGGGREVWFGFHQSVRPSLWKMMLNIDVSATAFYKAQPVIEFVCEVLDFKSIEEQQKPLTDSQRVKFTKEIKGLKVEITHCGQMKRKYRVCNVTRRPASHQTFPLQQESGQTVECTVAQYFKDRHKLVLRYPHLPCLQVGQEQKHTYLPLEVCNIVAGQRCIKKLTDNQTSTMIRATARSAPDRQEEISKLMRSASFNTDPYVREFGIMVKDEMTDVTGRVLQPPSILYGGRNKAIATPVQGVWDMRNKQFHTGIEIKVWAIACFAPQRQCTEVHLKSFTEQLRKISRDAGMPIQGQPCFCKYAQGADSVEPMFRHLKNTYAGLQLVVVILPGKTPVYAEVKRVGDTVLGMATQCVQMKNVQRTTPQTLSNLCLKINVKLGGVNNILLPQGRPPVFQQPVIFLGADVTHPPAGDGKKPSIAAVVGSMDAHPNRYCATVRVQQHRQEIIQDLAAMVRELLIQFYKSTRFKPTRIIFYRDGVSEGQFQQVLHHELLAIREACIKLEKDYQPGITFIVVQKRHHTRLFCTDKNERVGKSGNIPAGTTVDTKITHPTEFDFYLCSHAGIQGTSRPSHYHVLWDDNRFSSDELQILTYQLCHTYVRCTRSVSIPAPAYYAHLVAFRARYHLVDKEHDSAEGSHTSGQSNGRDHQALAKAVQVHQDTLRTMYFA"},
  "source": "paper PMC10205598",
  "molecular_target": "endogenous Nucleolin (NCL) (mouse (endogenous in N2a)) (UniProt P09405)",
  "assay": "co-IP; N2a cells transfected with MYCFAM172A and FLAGAGO2, endogenous NCL as bait; whole-cell extracts in 100 mM NaCl lysis buffer",
  "note": "No constants are given. Whether binding was seen depends on the method and setting. Binding seen in cells or lysates may run through a third protein. Some results given as binding are weak or reduced against the parent protein; the word gives no strength.",
  "data": [
    {"substance": "full-length _(FLAG)AGO2 (from UniProt Q9UKV8 1-859)", "values": [
      {"measurement": "binding", "result": "binds"}
    ]}
  ]
}
